Test results from US20030124590.
Where cells or extracts were used, other partners may take part. For some assays here: A weaker result is weaker than the reference pair of the same experiment. For some assays here: For at least one entry, the source does not settle the construct or the ends of the probe.

The chains behind the UniProt entries cited, without tags or fusion partners. Where a name states a change or a piece, a line headed by the entry shows the natural chain unless it says otherwise.
UniProt Q8VIP2: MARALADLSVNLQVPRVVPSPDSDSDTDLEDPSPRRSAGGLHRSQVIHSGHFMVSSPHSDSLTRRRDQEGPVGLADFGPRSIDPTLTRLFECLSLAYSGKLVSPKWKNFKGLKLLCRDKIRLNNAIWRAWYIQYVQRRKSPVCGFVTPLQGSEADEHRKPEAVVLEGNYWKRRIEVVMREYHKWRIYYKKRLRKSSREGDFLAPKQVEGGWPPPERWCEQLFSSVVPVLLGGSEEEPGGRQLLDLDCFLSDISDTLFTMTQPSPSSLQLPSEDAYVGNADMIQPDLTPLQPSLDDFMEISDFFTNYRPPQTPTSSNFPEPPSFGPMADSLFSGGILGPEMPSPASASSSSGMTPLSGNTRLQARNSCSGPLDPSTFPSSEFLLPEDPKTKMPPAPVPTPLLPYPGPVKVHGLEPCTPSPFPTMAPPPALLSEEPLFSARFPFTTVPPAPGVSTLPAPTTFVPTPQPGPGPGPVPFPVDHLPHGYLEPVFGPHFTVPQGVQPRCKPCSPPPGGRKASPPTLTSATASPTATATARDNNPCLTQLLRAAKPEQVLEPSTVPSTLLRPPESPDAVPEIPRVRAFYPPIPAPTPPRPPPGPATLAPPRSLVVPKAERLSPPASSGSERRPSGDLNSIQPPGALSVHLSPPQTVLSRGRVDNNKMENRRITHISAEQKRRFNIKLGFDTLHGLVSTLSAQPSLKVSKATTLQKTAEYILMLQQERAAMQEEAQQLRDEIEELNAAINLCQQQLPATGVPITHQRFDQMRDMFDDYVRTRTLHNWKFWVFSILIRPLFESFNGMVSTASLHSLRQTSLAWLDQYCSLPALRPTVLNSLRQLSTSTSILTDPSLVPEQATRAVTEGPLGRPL

Tests used:
[1] = biological target: ChREBP (WBSCR14), endogenous in liver nuclear extract (Rattus norvegicus) (UniProt Q8VIP2); assay: EMSA; conditions: protein in an extract, label: 32P
[2] = tested on: USF (upstream stimulatory factor) (Rattus norvegicus); assay: EMSA; conditions: USF complex identified by antibody supershift; protein in an extract; label: 32P
[3] = complex formation significantly impeded, variant of LPK ChRE WT

Row | Sequence | binding result ([1]; protein source per Example 2) | binding result [1, 3] | also measured
1 | GATCTGATGGGGGGCGGGGAGGAGCCCGGGATC (double strand) [ACL] | binds | – | –
2 | GGGCGAACGGGGCACTCCCGTTGTTCC (double strand) [LPK ChRE M1] | – | binds more weakly | –
3 | GACCTGTCCCTGCTCACAGCTGGGGGCAAATGTCTCCAGGAGAGCAAAGCC (double strand) [InsZ] | binds | – | –
4 | GGGCGCACGTGGCACTCACGTGGTTCC (double strand) [LPK ChRE M5] | – | – | binding result ([1]; perfect palindromic E-boxes, enhanced complex vs WT, variant of LPK ChRE WT): binds
5 | GGGCGCACGGTGCACTACCGTGGTTCC (double strand) [LPK ChRE M6] | – | binds more weakly | –
6 | GGGCGCACGGGGCACTCCCGTGGTTC (double strand) [L-PK ChRE (Table 4)] | – | – | binding result ([1]; protein source per Example 2 (nuclear extract)): binds
7 | AGTTCTCACGTGGTGGCCCTGTGCTTGG (double strand) [S14] | binds | – | –
8 | CTTCCTGCATGTGCCACAGGCGTGTCACCCTC (double strand) [FAS] | binds | – | –
9 | GGGCGCACGGGGCACTCCCGTGGTTCC (double strand) [LPK ChRE WT] | – | – | binding result [2]: binds; binding result ([1]; liver nuclear extract, enriched 2-3 fold by high carbohydrate diet): binds
10 | GGGCGCAAGGGGCACTCCCTTGGTTCC (double strand) [LPK ChRE M3] | – | binds more weakly | –
11 | CAAATGCCATGTGAAAACCCATAGCCTG (double strand) | binds | – | –
12 | GGGCGCACTGGGCACTCCAGTGGTTCC (double strand) [LPK ChRE M4] | – | binds more weakly | –
13 | GGGCGCCCGGGGCACTCCCGGGGTTCC (double strand) [LPK ChRE M2] | – | binds more weakly | –
